Reference: PMC8511327
No constants are given. Whether binding was seen depends on the method and setting. Binding seen in cells or lysates may run through a third protein. Binding calls can cover weak binding; strength is not graded here.

Columns and labels:
Assay in all cases: pull-down; GST-tagged N- or C-terminal parts of t-γ-TuRC proteins purified and immobilized on glutathione sepharose beads (bait), mixed with 35S-methionine-labelled IVTT prey proteins; autoradiography; only the target purified
[1] = biological target: GST-t-Grip128-C (GST-tagged C-terminal part of t-Grip128) (Drosophila melanogaster)
[2] = biological target: GST-t-Grip84-N (GST-tagged N-terminal part of t-Grip84) (Drosophila melanogaster)
[3] = biological target: GST-t-Grip91-N (GST-tagged N-terminal part of t-Grip91) (Drosophila melanogaster)

Measured: binding

B1: 35S-methionine-labelled full-length γ-Tub23C (IVTT prey) (protein, UniProt P23257 1-475)
chain: MPSEIITLQLGQCGNQIGFEFWKRLCLEHGISPSGVLEDFANDGLDRKDVFFYQADDDHYIPRAVLLDLEPRVINTIMGSVYSKLYNPENVYLSKHGGGAGNNWASGYSQGEKLQEEVFDIIDREADGSDSLEGFILCHSIAGGTGSGMGSFIMERLADRYPKKLIQTFSVFPNQDEISDVVVQPYNSMLTLKRLTTAADSVVVLDNTALNRIACDRLHIQNPSFSQINNLVSTIMSVSTTTLRYPSYMNNNLIGLTAPLIPTPQLHFLMTGYTPLTSDSDIHTQQLVNVRKTTVLDVMRRLLQPKNMMVSTGPDKSNHHCYISILNIIQGEVDPTQVHKSLQRIRDRKMAQFIPWGPTSIQVALSRSSPYVQSNHRVSGLMLANHTSICSLFERALNQYDKLRKRGAFLDQFRREDIFKDDLNELDESRETVDCLVQEYEAATREDYMQFSVKRGNGPVDSKSEDSRSVTSAGS
modifications: 35S-methionine-labelled
binds: [1] | [2] | [3]
